# In patent US7476511B2, “Method of detecting and analyzing paclitaxel-mimetic compounds” (priority 2001, dated 2009):
# System: paclitaxel binding site of microtubules
# Assay: Binding of Flutax-2 to cross-linked microtubules by fluorescence anisotropy
# Design: species or system bovine
# Settings: 495 nm band, emission 520 nm, 25° C.
# Description: The intensity of fluorescence of Flutax-2 changes very little with the binding to microtubules. There is a small change in the excitation maximum from 494 nm to 495 nm (isosbestic point at 500 nm ) and a blue shift in emission from 523 nm to 520 nm (not shown here; isosbestic point at 525 nm; Diaz, J. F. et al.). […] The excitation anisotropy spectrum of a 50 nM solution of microtubule sites/Flutax-2 was compared with the spectrum of a similar solution in which the binding sites were blocked by an excess of paclitaxel and of free Flutax-2. […] The anisotropy values determined for the 495 nm band (emission 520 nm; GAB buffer containing glycerol, 25° C.) were: free Flutax-2 (50 nm ), rmin=0.055; in the presence of microtubules blocked with paclitaxel, r=0.060; Flutax-2 specifically bound to the microtubules, rmax=0.29 (the last was determined by valuation of 50 nm Flutax-2 with growing concentrations of microtubules). […]
# Tubulin from bovine brain was purified and stored, and its concentration was measured as has been described (Andreu, J. M. et al.). […]
# Fluorescence spectra were obtained corrected with a Fluorolog-3-221 photon count instrument (Jobin Yvon-Spex, Longlumean, France), with an emission bandwidth of 5 nm and excitation of […] at 25° C. […] The multiple measurements of anisotropy were made with a PolarStar microplate reader (BMG Labtechnologies, Offenburg, Germany) at 25° C. […]
smiles,measurement,setting,value
"CC(=O)O[C@H]1C(=O)[C@]2(C)[C@@H](OC(=O)[C@H](C)NC(=O)c3ccc4c(c3)C(=O)OC43c4cc(F)c(O)cc4Oc4cc(O)c(F)cc43)C[C@H]3OC[C@@]3(OC(C)=O)[C@H]2[C@H](OC(=O)c2ccccc2)[C@]2(O)C[C@H](OC(=O)[C@H](O)[C@@H](NC(=O)c3ccccc3)c3ccccc3)C(C)=C1C2(C)C [Flutax-2, 7-O-[N-(2,7-difluoro-4′-fluoresceincarbonyl)-L-alanyl]paclitaxel]","fluorescence anisotropy rmin, free Flutax-2","GAB buffer containing glycerol, free, 50 nm",0.055
same,"fluorescence anisotropy rmax, specifically bound to the microtubules","GAB buffer, valuation with growing concentrations of microtubules",0.29
